# From PubChem BioAssay AID540276 (National Center for Advancing Translational Sciences (NCATS), 2011)
# Hit rate of the full screen: of about 300,000 compounds, about 5,400 (1.8%) were called active. Inconclusive means that the source gave no clear call. Such entries were picked first, then a sample of the others. Calls follow the shape of the full dose curve; tested in HEK293 cells. Potencies of inconclusive entries are doubtful fits and often do not repeat.
# Assay: qHTS for inhibitors of binding or entry into cells for Marburg Virus
# Settings: Marburg virus pseudotyped entry inhibition, cell reporter; activity change, negative = inhibition: at 37.8 µM (top of the series) unless noted
# % is scaled to controls: 0 for no effect and ±100 for the full control effect; potency is read from the fitted curve at half-maximal effect.
Structure (SMILES),Potency,"activity change, negative = inhibition"
CC(=O)Oc1ccc(Cl)cc1CN(C(C)=O)C1CCCCC1,"inconclusive: 35.5 µM [inhibitor, single point]",
CN(C)c1cccc(C(=O)N/N=C/c2ccoc2)c1,,inactive: 10.3%
Cc1ccc(N2CCN(c3ncccc3[N+](=O)[O-])CC2)c(C)c1,"inconclusive: 1.41 µM [inhibitor, partial curve, poor fit]",
CC(C)N=C1NN=C(c2ccc(Cl)c(Cl)c2)CS1,"inconclusive: 31.6 µM [inhibitor, single point]",
Cc1ccc(NC(=O)c2ccc3c(c2)N(CC(=O)N2CCCCC2)C(=O)C(C)(C)O3)cc1,,inactive: -0.198%
COc1ccc(S(=O)(=O)c2c(C(=O)c3ccc(C)c(C)c3)cnc3ccc(F)cc23)cc1,"inconclusive: 15.8 µM [inhibitor, partial curve, poor fit]",
N#CCCN(CCC#N)C(=O)C1c2ccccc2Oc2ccccc21,"inconclusive: 0.562 µM [inhibitor, full curve, poor fit]",
O=C(OCC(=O)N1CCCCC1)c1ccccc1SCC(=O)N1CCCCC1,,inactive: 10.8%
O=C(NNC(=S)NC(=O)c1ccccc1[N+](=O)[O-])c1ccccc1Cl,"inconclusive: 7.94 µM [activator, partial curve, poor fit]",
COc1cc(Cl)c(C)cc1NC(=O)CSc1nnc(-c2ccccn2)n1Cc1ccco1,"inconclusive: 16.4 µM [inhibitor, partial curve, poor fit]",
O=C(NCCc1nc2ccccc2[nH]1)c1ccc(Cl)c([N+](=O)[O-])c1,,inactive: 3.12%
O=C(C1CC(c2ccc(F)cc2)=NO1)N1CCC2(CC1)OCCO2 (centres undefined),"inconclusive: 4.11 µM [activator, full curve, poor fit]",
O=C(Nc1nnc(-c2ccc(Br)cc2)o1)c1ccco1,"inconclusive: 7.94 µM [inhibitor, partial curve, poor fit]",
c1ccc(CN=C2Nc3ccccc3CS2)nc1,"inconclusive: 11.2 µM [inhibitor, partial curve, poor fit]",
O=C(Nc1ccccc1C(=O)NCc1ccco1)NC1CCCCC1,"inconclusive: 35.5 µM [activator, single point]",
O=[N+]([O-])c1cc2oc3c(c2c(C=NCc2ccccc2)c1O)CCCC3,,inactive: 8.48%
C=C(C)CN(CC)C(=O)CN1C(=O)NC2(CCc3ccccc32)C1=O (centres undefined),,inactive: -3.24% [at 46.1 µM]
O=C(Nc1ccccn1)c1ccc(S(=O)(=O)N2CCCC2)cc1,,inactive: -0.225% [at 46.1 µM]
Cc1ccc2sc(N3CCN(CCNC(=O)c4ccco4)CC3)nc2c1C,"inconclusive: 25.1 µM [inhibitor, single point]",
O=C(CCCc1ccccc1)Nc1ccccn1,,inactive: 8.59% [at 46.1 µM]
Cc1nnc2n(c1=O)C(CS(=O)(=O)c1ccccc1)CS2 (centres undefined),,inactive: -15.8%
CC(C(=O)N1CCCCC1)N1C(=O)c2ccccc2C1=O (centres undefined),"inconclusive: 35.5 µM [activator, single point]",
CCN(CC)c1ccc(NC(=O)c2ccccc2)cc1S(=O)(=O)Nc1ccccc1OC,"inconclusive: 5.62 µM [inhibitor, partial curve, poor fit]",

# An excerpt of these results, with bars between the fields:
Structure (SMILES) | Potency | activity change, negative = inhibition
N#CCCN(CCC#N)C(=O)C1c2ccccc2Oc2ccccc21 | inconclusive: 0.562 µM [inhibitor, full curve, poor fit] | 
O=C(OCC(=O)N1CCCCC1)c1ccccc1SCC(=O)N1CCCCC1 |  | inactive: 10.8%
O=C(NNC(=S)NC(=O)c1ccccc1[N+](=O)[O-])c1ccccc1Cl | inconclusive: 7.94 µM [activator, partial curve, poor fit] | 
COc1cc(Cl)c(C)cc1NC(=O)CSc1nnc(-c2ccccn2)n1Cc1ccco1 | inconclusive: 16.4 µM [inhibitor, partial curve, poor fit] | 

# Entries of single compounds, quoted from the list.
# `CC(=O)Oc1ccc(Cl)cc1CN(C(C)=O)C1CCCCC1` is listed with Potency: inconclusive: 35.5 µM [inhibitor, single point]
# `O=C(C1CC(c2ccc(F)cc2)=NO1)N1CCC2(CC1)OCCO2` (centres undefined) is listed with Potency: inconclusive: 4.11 µM [activator, full curve, poor fit]

# Following part.

Structure (SMILES),Potency,"activity change, negative = inhibition"
CCC1(CC(C)c2ccccc2)C(=O)NC(=O)NC1=O (centres undefined),"inconclusive: 35.5 µM [inhibitor, single point]",
O=C(CSc1nc(O)cc(=O)[nH]1)N1c2ccccc2CCc2ccccc21,,inactive: 4.55% [at 46.1 µM]
CC(C)(C)c1nc(N2CCN(C(=O)c3ccco3)CC2)c2nnn(Cc3ccccc3Cl)c2n1,"inconclusive: 14.1 µM [inhibitor, partial curve, poor fit]",
O=C(NNC(=S)NCc1ccco1)c1cccs1,"inconclusive: 35.5 µM [activator, single point]",
COc1ccc(NC(=O)NN2CCOCC2)cc1OC,,inactive: -12.4% [at 14.2 µM]
O=C(NCc1ccccc1)/C(=C\c1ccc([N+](=O)[O-])cc1)NC(=O)c1ccco1,"inconclusive: 35.5 µM [activator, single point]",
COC(=O)Nc1ccc2c(c1)N(C(=O)CCN1CCN3CCCC3C1)c1ccccc1CC2 (centres undefined),inactive,
Nc1ccc(Sc2ccccc2)nc1,,inactive: -5.76% [at 46.1 µM]
COc1ccc(Nc2ccc([N+](=O)[O-])cn2)cc1,,inactive: 7.39%
CC(C)C(OC(=O)CN1C(=O)COc2ccccc21)C(=O)NC1CCCC1 (centres undefined),"inconclusive: 29.1 µM [inhibitor, single point]",
COc1ccc(C(C)=O)cc1CSCCC#N,"inconclusive: 12.6 µM [activator, partial curve, poor fit]",
CC(=O)OCC=C1CCC2C3CC(C)C4=CC(=O)CCC4(C)C3C(O)CC12C (centres undefined),"inconclusive: 11.2 µM [inhibitor, single point]",
CCNC(=S)NNC(=O)c1cc(-c2ccccc2C)nc2ccccc12,,inactive: 1.72%
CN(C)S(=O)(=O)c1ccc(C(=O)OCC(=O)Nc2sc3c(c2C#N)CCCCC3)cc1,"inconclusive: 6.31 µM [activator, single point]",
COc1cc(NC(=O)c2cccs2)c(OC)cc1NC(=O)c1ccco1,"inconclusive: 0.562 µM [activator, single point]",
Cc1cc(C)c(S(=O)(=O)N2CCCOC2CNC(=O)C(=O)NCc2cccs2)c(C)c1 (centres undefined),,inactive: -0.297%
COc1ccccc1CNC(=O)COC(=O)/C=C/c1ccc2c(c1)OCO2,"inconclusive: 17.8 µM [activator, single point]",
Cc1ccc(N(C(=O)c2csnn2)C(C(=O)NC2CCCCC2)c2cccnc2)c(C)c1 (centres undefined),"inconclusive: 1.26 µM [inhibitor, full curve]",
C=CCN1C(=O)C2(OCCCO2)c2cc(C)ccc21,"inconclusive: 0.316 µM [inhibitor, partial curve, poor fit]",
CCc1ccccc1NC(=O)CNCC(=O)Nc1ccccc1CC,,inactive: -0.199% [at 46.1 µM]
CC(=O)OC1(C(C)=O)CCC2C3CC(C(F)(F)F)C4=CC(=O)CCC4(C)C3CCC21C (centres undefined),active: 8.91 µM,
Cc1ccc(C2C(C#N)=C(N)N(c3cccnc3)C3=C2C(=O)CCC3)c(C)c1 (centres undefined),"inconclusive: 1.26 µM [activator, partial curve, poor fit]",
CCOc1ccccc1NC(=O)C1Cc2ccccc2CN1S(C)(=O)=O (centres undefined),,inactive: 3.07%

Structure (SMILES),Potency,"activity change, negative = inhibition"
COC(=O)C1C(c2ccc(Cl)cc2)NC(c2ccc(Cl)cc2)C(C(=O)OC)S1(=O)=O (centres undefined),"inconclusive: 0.0103 µM [inhibitor, full curve, poor fit]",
COc1ccc(CNC(=O)c2noc3c2CCCC3)cc1,,inactive: 11.7%
COc1ccc2c(Cl)c(C(=O)N/N=C/c3c(C)[nH]c4ccccc34)sc2c1,"inconclusive: 7.94 µM [inhibitor, partial curve, poor fit]",
Cc1ccc(C(=O)Nc2sc(C)c(-c3ccccc3)c2C(N)=O)cc1[N+](=O)[O-],"inconclusive: 0.891 µM [activator, partial curve, poor fit]",
CC1=Nc2ccccc2N=C(NC(=O)CSC(=S)N2CCCCC2)C1c1ccccc1 (centres undefined),active: 10 µM,
CCN1C(=O)CC(c2ccc(OC(C)C)cc2)C1=O (centres undefined),,inactive: 26.5%
COc1ccc(-c2c(C)nc3c(-c4ccccn4)cnn3c2N)cc1,"inconclusive: 10 µM [inhibitor, single point]",
COc1cc(C(=O)OCC(=O)Nc2c(F)cccc2F)cc(OC)c1C,"inconclusive: 2.82 µM [inhibitor, full curve, poor fit]",
CC(C)(C)c1ccc(-c2nc(NC(=O)CSc3ncnc4sc5c(c34)CCCC5)ns2)cc1,"inconclusive: 4.47 µM [activator, partial curve, poor fit]",
CN1c2ccsc2/C(=N/Nc2ccccc2)CS1(=O)=O,"inconclusive: 35.5 µM [inhibitor, single point]",
CCCCOc1ccc(C(=O)N(Cc2ccc(N(C)C)cc2)Cc2ccco2)cc1,,inactive: -18.1% [at 46.1 µM]
CCOc1ccc(-c2nnc(SCC(=O)N3CCCC3)o2)cc1,,inactive: 15.2% [at 46.1 µM]
COc1ccc(NC(=O)C/C(C)=N/NC(=O)c2ccccn2)c(OC)c1,"inconclusive: 2.51 µM [activator, single point]",
Cc1ccc([C@H]2C[C@H](O)[C@@H](n3cc(C4CC4)nn3)CN2CC2CCCCC2)cc1,"inconclusive: 1.58 µM [inhibitor, full curve, poor fit]",
CC(=O)c1ccc(N2C(=O)[C@@H]3C(CCC(N)=O)NC4(C(=O)Nc5c4ccc(Cl)c5C)[C@@H]3C2=O)cc1 (some centres undefined),"inconclusive: 14.1 µM [activator, single point]",
CCc1ccc(-c2nc(CSCC(=O)NCc3ccco3)c(C)o2)cc1,"inconclusive: 8.91 µM [inhibitor, partial curve, poor fit]",
Fc1ccc(NCc2ccccc2-c2nnc(-c3ccccc3Cl)o2)cc1,,inactive: 28% [at 46.1 µM]
CCOc1ccc(-c2cc3nc(C4CCN(C(=O)OC(C)(C)C)CC4)c(C(=O)Nc4cccc(CC)c4)cn3n2)cc1,"inconclusive: 2.82 µM [inhibitor, single point]",
CC(=O)c1cc(F)c(N2CCN(C(=O)COc3ccccc3F)CC2)cc1C,,inactive: -14.2%
CC1=C(c2ccc(Cl)cc2)S(=O)(=O)N=C1N1CCN(c2cccc(C)c2C)CC1,"inconclusive: 6.31 µM [inhibitor, single point]",
c1ccc2sc(-c3ccncc3)nc2c1,"inconclusive: 3.16 µM [activator, full curve]",
Cc1ccc(CN2CCN(c3ccccc3)CC2)o1,"inconclusive: 31.6 µM [inhibitor, single point]",
COc1ccc(COc2cc(-c3cccc(OC)c3)nc3ccc(NC(=O)c4ccc(N(C)C)cc4)cc23)cc1,"inconclusive: 20.6 µM [inhibitor, single point]",
